No constants are given. Whether binding was seen depends on the method and setting. Some binding calls cover weakened binding; strength is not graded here.
Tests used:
TWEAK [1] = target: TWEAK (UniProt O43508); experiment: ELISA, ligand coated on plate
TWEAK [2] = target: TWEAK (UniProt O43508); experiment: binding affinity test (ELISA, FIG. 10)

Amino acid sequences for entries named in this document (tags omitted). A change or cut given only in a name is not applied to a line headed by its entry. Residues count along the entry.
UniProt O43508, residues 94-249: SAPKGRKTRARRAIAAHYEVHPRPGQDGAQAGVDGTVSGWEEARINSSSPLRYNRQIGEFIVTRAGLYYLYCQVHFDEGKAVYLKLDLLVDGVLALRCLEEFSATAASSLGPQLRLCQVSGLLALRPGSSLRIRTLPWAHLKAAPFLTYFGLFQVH
UniProt Q9NP84: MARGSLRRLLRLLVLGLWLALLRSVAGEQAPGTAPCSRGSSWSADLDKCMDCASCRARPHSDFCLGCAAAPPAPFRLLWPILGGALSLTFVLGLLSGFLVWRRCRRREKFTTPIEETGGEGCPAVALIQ

binding (TWEAK [1]): binds
binding (TWEAK [2]): binds
Substance: TWEAKR-Fc (from UniProt Q9NP84 28-76) (Fc fusion)
